# In article PMC12040169 (PLOS Biology, 2025):
# This is one part of the list.
# Test system: T1, CTL2-GFP (C. trachomatis L2/434/Bu, GFP-expressing)
# T1 construct: L2/434/Bu, GFP-expressing
# Parameters: species or system HeLa; Intracellular C. trachomatis growth in HeLa cells, bulk GFP fluorescence relative to DMSO
# Conditions: bulk GFP, single well; 28.5 h, 10 µM; inhibitor
row,Structure (SMILES),% of control remaining
1,CCNc1nc(-c2ccsc2)cn2ccnc12 [CBK037375],112.274%
2,O=C(c1ccc([N+](=O)[O-])cc1)n1nc(-c2cccnc2)nc1NCc1ccc(F)cc1 [CBK268962],146.047%
3,O=C(c1ccc2ncccc2c1)N1CCN(c2ncccn2)CC1 [CBK144503],127.546%
4,O=C(c1cc2c(F)cccc2[nH]1)N1CCC(Oc2cccnc2)CC1 [CBK281468],83.2683%
5,Cc1ccc(-c2nc(Nc3ccc(Br)cc3)sc2CC(=O)O)cc1 [CBK264251],119.719%
6,Cc1ccccc1-n1ccn(S(=O)(=O)C(C)C)c1=O [CBK106566],106.616%
7,CN(C)C(=O)c1cc2cc(NC(=O)CC3COCCN3)ccc2s1 (stereo not shown) [CBK306710],115.982%
8,CCCn1nc(C)cc1NC(=O)c1ncoc1-c1ccc(F)cc1 [CBK282361],138.106%
9,O=C(O)CCN1CCCC2(CCN(C(=O)Cc3c[nH]c4ccccc34)C2)C1 (stereo not shown) [CBK137138],113.044%
10,Cc1cc(CNC(=O)N2CCCC(CO)C2)no1 (stereo not shown) [CBK156028],96.0918%
11,CN(C)c1cccc(-c2ccc(Nc3cccc(NC(=O)c4ccncc4)c3)nc2)c1 [CBK037721],116.091%
12,CC(C)C(=O)NCCn1nc(-c2ccco2)ccc1=O [CBK283863],124.761%
13,Cc1nn(C)cc1-c1cncn1CCCn1ccnc1C(C)C [CBK281972],124.006%
14,O=C(COc1cccc([N+](=O)[O-])c1)Nc1cc(C(=O)O)cc(C(=O)O)c1 [CBK263604],93.2263%
15,CC(=O)Nc1nc(CN2CCOC(c3ccc(F)cc3)C2)cs1 (stereo not shown) [CBK305591],126.178%
16,Cc1nc(C)c(-c2csc(Nc3ncccn3)n2)s1 [CBK263297B],90.9895%
17,Oc1ccc(CN2CCN(c3ccc(F)cc3)CC2)c2cccnc12 [CBK267985],90.7719%
18,CCOC(=O)c1cccc(-c2ccc(OC(F)(F)F)cc2)n1 [CBK149251],120.07%
19,Cc1nnc(SCCn2c(N3CCCCC3)nc3c2c(=O)n(C)c(=O)n3C)s1 [CBK269288],145.28%
20,O=[N+]([O-])c1ccc(Sc2nnc(-c3cccs3)n2CC2CCCO2)cn1 (stereo not shown) [CBK297483],55.056%

# Fetched by compound from the list above (2):
row,Structure (SMILES),% of control remaining
4,O=C(c1cc2c(F)cccc2[nH]1)N1CCC(Oc2cccnc2)CC1 [CBK281468],83.2683%
1,CCNc1nc(-c2ccsc2)cn2ccnc12 [CBK037375],112.274%

# Further records

row,Structure (SMILES),% of control remaining
1,O=[N+]([O-])c1ccc(NCCNS(=O)(=O)c2ccccc2)cc1 [CBK261948],141.847%
2,CC(C(=O)N1c2ccccc2Sc2ccccc21)N1C(=O)c2ccccc2C1=O (stereo not shown) [CBK018045],89.084%
3,O=C(Nc1cccnc1)N1CCc2ccccc2C1 [CBK155312],114.256%
4,Cc1ccccc1-n1nc(-c2ccc(NC(=O)c3ccccc3)cc2)cc1NC(=O)c1ccccc1 [CBK261264],102.836%
5,CC(C)NS(=O)(=O)c1ccc(NS(=O)(=O)c2cccc(C(=O)O)c2)cc1 [CBK296950],128.994%
6,CCc1nccn1CCC(=O)Nc1ccc2c(c1)nc(CC)n2CC [CBK281629],152.518%
7,COc1ccccc1-c1ccc(NC(=O)CCc2ccc3c(c2)n(C)c(=O)n3C)cc1 [CBK286527],102.946%
8,Cc1c(C(=O)C2=C(O)C(=O)N(CCCN(C)C)C2c2ccccn2)cnn1-c1ccccc1 (stereo not shown) [CBK266516],127.909%
9,COC(=O)/C=C/c1cccc(-c2cnc(N)c(-c3ccc(O)cc3)n2)c1 [CBK125689],101.537%
10,Cc1cc(C)cc(NC(=O)c2ccc(CSc3nnc(N)s3)cc2)c1 [CBK266609],98.3208%
11,O=C(c1cncnc1)N1CCC2(CCN(C(=O)c3cc(F)c(F)cc3F)C2)C1 (stereo not shown) [CBK131405],109.236%
12,CN(C)c1nc(-c2cc(C(F)(F)F)cc(C(F)(F)F)c2)ccc1C(=O)NCc1ccco1 [CBK106094],124.889%
13,COc1ccc(C(C)C)cc1-c1cncc(N2CCN(Cc3ccccn3)CC2)n1 [CBK065792],135.139%
14,OC(CNCc1cccs1)c1ccccc1 (stereo not shown) [CBK057092],121.629%
15,COCCN(Cc1cnn(C)c1)C(=O)NCc1nc2c(C)cccc2o1 [CBK307642],146.574%
16,O=C(O)C1C2C=CC(C2)C1C(=O)NCc1ccncc1 (stereo not shown) [CBK265403],109.284%
17,Cc1sc2c(C3CCN(C(=O)C4CC4C)CC3)nc(C)n2c1C (stereo not shown) [CBK285299],76.8325%
18,COc1ccc(Cl)cc1-c1noc(Cn2nc(C)c(Cl)c2C)n1 [CBK269813],137.203%
19,c1sc(C2CN3CCCC3CO2)nc1C1CCCC1 (stereo not shown) [CBK304814],120.035%
20,COc1ccc(C)cc1S(=O)(=O)Nc1cc(NCCCN2CCOCC2)c2occc2c1 [CBK067837C],92.3758%
